Reference: the supplement of paper PMC4604168 (melanoma cell lines)
Some of the results follow. Repeats are few or missing, and single values can be far off.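 Cells were imaged in 1,536-well plates, and nuclei stained with an antibody against cleaved PARP were counted against all DNA-stained nuclei to give the apoptosis fraction. Screening doses were chosen to leave most cells alive, and resting and induced cleaved-PARP levels differ strongly between cell lines.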

Experiments:
Test in all cases: cleaved PARP positive nuclei fraction relative to DMSO control; melanoma cells; higher = more apoptosis
Conditions in all cases: library dose: low library concentration; 72 h
[1] = tested on: 501Mel
[2] = tested on: A101D
[3] = tested on: A2058
[4] = tested on: A375
[5] = tested on: C32
[6] = tested on: CBRC008 (line from a melanoma biopsy)
[7] = tested on: CBRC013 (line from a melanoma biopsy)
[8] = tested on: CBRC014 (line from a melanoma biopsy)
[9] = tested on: CBRC016 (line from a melanoma biopsy)
[10] = tested on: CBRC017 (line from a melanoma biopsy)

Compound | cleaved PARP positive nuclei fraction [1] [%] | cleaved PARP positive nuclei fraction [2] [%] | cleaved PARP positive nuclei fraction [3] [%] | cleaved PARP positive nuclei fraction [4] [%] | cleaved PARP positive nuclei fraction [5] [%] | cleaved PARP positive nuclei fraction [6] [%] | cleaved PARP positive nuclei fraction [7] [%] | cleaved PARP positive nuclei fraction [8] [%] | cleaved PARP positive nuclei fraction [9] [%] | cleaved PARP positive nuclei fraction [10] [%]
COc1cc(Nc2ncc(F)c(Nc3ccc4c(n3)NC(=O)C(C)(C)O4)n2)cc(OC)c1OC [Tamatinib] + NC(=O)Nc1cc(-c2cccc(F)c2)sc1C(=O)N[C@H]1CCCNC1 [AZD7762] (first compound 0.4 µM, partner dose 0.02 µM) | 184 | 114 | 112 | 609 | 153 | 449 | 92.6 | 96.2 | 99.9 | 110
C=CCn1c(=O)c2cnc(Nc3ccc(N4CCN(C)CC4)cc3)nc2n1-c1cccc(C(C)(C)O)n1 + Cc1ccc(NC(=O)c2cccc(N(C)C)c2)cc1NC(=O)c1ccc(O)cc1 [ZM336372] (first compound 0.02 µM, partner dose 2 µM) | 268 | 101 | 20.4 | 314 | 89.2 | 171 | 120 | 148 | 99.5 | 73.2
C[C@]1(c2nc3c(C(N)=O)cccc3[nH]2)CCCN1 [Veliparib] + O=C(O)c1ccc(-c2c[nH]c3ncc(-c4ccccc4)cc23)cc1C1CCCC1 [GSK650394] (first compound 1.4 µM, partner dose 0.16 µM) | 91.6 | 98.4 | 234 | 29.8 | 90.3 | 70.7 | 141 | 120 | 114 | 92.2
COCC[n+]1c2c(n(Cc3cnccn3)c1C)C(=O)c1ccccc1C2=O + Cn1cncc1[C@@](N)(c1ccc(Cl)cc1)c1ccc2c(c1)c(-c1cccc(Cl)c1)cc(=O)n2C [tipifarnib] (first compound 0.0004 µM, partner dose 0.01 µM) | 187 | 98.8 | 186 | 56.8 | 134 | 384 | 109 | 102 | 108 | 96.2
O=C(CCCCCCC(=O)Nc1ccccc1)NO [vorinostat] + Cn1cncc1[C@@](N)(c1ccc(Cl)cc1)c1ccc2c(c1)c(-c1cccc(Cl)c1)cc(=O)n2C [tipifarnib] (first compound 0.08 µM, partner dose 0.01 µM) | 40.6 | 93.9 | 98.3 | 112 | 72.5 | 89.3 | 96.2 | 94.4 | 155 | 94.6
O=C(Nc1cccc(Cl)c1)Nc1ncc(CCNc2ncnc3ccsc23)s1 + COc1cc2c(Oc3ccc4[nH]c(C)cc4c3F)ncnc2cc1OCCCN1CCCC1 [cediranib] (first compound 0.0008 µM, partner dose 0.4 µM) | 73 | 77.7 | 85.4 | 90.2 | 206 | 53 | 167 | 57.1 | 93.4 | 73.4
COc1cc(Nc2ncc(F)c(Nc3ccc4c(n3)NC(=O)C(C)(C)O4)n2)cc(OC)c1OC [Tamatinib] + Cc1ccc(NC(=O)c2cccc(N(C)C)c2)cc1NC(=O)c1ccc(O)cc1 [ZM336372] (first compound 0.4 µM, partner dose 2 µM) | 88.5 | 168 | 133 | 158 | 110 | 169 | 144 | 104 | 73.5 | 106
Cc1cc(N2CCOCC2)cc2[nH]c(-c3c(NC[C@@H](O)c4cccc(Cl)c4)cc[nH]c3=O)nc12 + NCC(=O)Nc1ccc(-n2nc(C(F)(F)F)cc2-c2ccc3c(ccc4ccccc43)c2)cc1 [OSU03012] (first compound 0.2 µM, partner dose 1 µM) | 155 | 71.9 | 98.9 | 7470 | 27.9 | 305 | 221 | 110 | 133 | 117
Clc1ccc(Nc2nnc(Cc3ccncc3)c3ccccc23)cc1 [vatalanib] + NCC(=O)Nc1ccc(-n2nc(C(F)(F)F)cc2-c2ccc3c(ccc4ccccc43)c2)cc1 [OSU03012] (first compound 2 µM, partner dose 1 µM) | 478 | 83 | 117 | 6750 | 121 | 63.6 | 145 | 105 | 182 | 113
Cn1nnc2c(C(N)=O)ncn2c1=O [temozolomide] + Cc1ccc(NC(=O)c2cccc(N(C)C)c2)cc1NC(=O)c1ccc(O)cc1 [ZM336372] (first compound 2 µM, partner dose 2 µM) | 91.4 | 89.1 | 130 | 47.5 | 85.6 | 85.7 | 91.2 | 137 | 85.2 | 99.9
COCC[n+]1c2c(n(Cc3cnccn3)c1C)C(=O)c1ccccc1C2=O + NC(=O)Nc1cc(-c2cccc(F)c2)sc1C(=O)N[C@H]1CCCNC1 [AZD7762] (first compound 0.0004 µM, partner dose 0.02 µM) | 72.1 | 108 | 326 | 318 | 74.4 | 622 | 100 | 75 | 95.8 | 322
Clc1ccc(Nc2nnc(Cc3ccncc3)c3ccccc23)cc1 [vatalanib] + CC(C)(C)c1cnc(CSc2cnc(NC(=O)C3CCNCC3)s2)o1 [SNS-032] (first compound 2 µM, partner dose 0.01 µM) | 89.5 | 122 | 48.2 | 58.3 | 129 | 34.6 | 177 | 98.7 | 128 | 103

Complete entries from above. Values in the order: cleaved PARP positive nuclei fraction [1] [%]	cleaved PARP positive nuclei fraction [2] [%]	cleaved PARP positive nuclei fraction [3] [%]	cleaved PARP positive nuclei fraction [4] [%]	cleaved PARP positive nuclei fraction [5] [%]	cleaved PARP positive nuclei fraction [6] [%]	cleaved PARP positive nuclei fraction [7] [%]	cleaved PARP positive nuclei fraction [8] [%]	cleaved PARP positive nuclei fraction [9] [%]	cleaved PARP positive nuclei fraction [10] [%]
COCC[n+]1c2c(n(Cc3cnccn3)c1C)C(=O)c1ccccc1C2=O + Cn1cncc1[C@@](N)(c1ccc(Cl)cc1)c1ccc2c(c1)c(-c1cccc(Cl)c1)cc(=O)n2C [tipifarnib] (first compound 0.0004 µM, partner dose 0.01 µM) reads 187	98.8	186	56.8	134	384	109	102	108	96.2
COCC[n+]1c2c(n(Cc3cnccn3)c1C)C(=O)c1ccccc1C2=O + NC(=O)Nc1cc(-c2cccc(F)c2)sc1C(=O)N[C@H]1CCCNC1 [AZD7762] (first compound 0.0004 µM, partner dose 0.02 µM) reads 72.1	108	326	318	74.4	622	100	75	95.8	322
